Data source: PubChem BioAssay AID1159508 (Drosophila RNAi Screening Center, 2015)

Assay: 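Viability reference data for a dsRNA library against RNA-binding protein genes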
Cells: Drosophila S2R+ cells
Reagents: long dsRNA against Drosophila genes
Duration: 5 days
Measured: 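Luminescent ATP signal as a proxy for cell fitness after 5 days of RNAi, given as a z-score in each replicate and averaged over replicates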
Direction: mean ATP z-score and ATP z-score: higher = more total ATP luminescence
Active means: In these data the active calls have mean ATP z-score at about -2 or lower, or at about 2 or higher
Meaning of the calls: active = strong ATP change (up or down); inactive = no strong ATP change
Shown is an unselected part of 812 reagents. Over the whole deposit, 18 (2.2%) got an active call. 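Calls include both increased and decreased ATP; roughly one in four reagents has no third replicate value.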 A number with no mark means an inactive call. A plus sign joins genes that one reagent is predicted to hit. Further read-outs or replicates are left out here. Reagent sequences are not shown. The record does not give: the amount of reagent.

mean ATP z-score	ATP z-score, replicate 1	ATP z-score, replicate 2	target	DRSC id
0.543	0.207	0.252	nxf2	DRSC10403
-0.242	-0.718	-0.556	nxf2	DRSC26721
-0.28	-0.668	-0.0877	mEFTu1	DRSC06959
-0.595	-0.742	-0.372	mEFTu1	DRSC29468
1.39	1.21	1.39	TH1	DRSC20289
-0.166	-0.345	-0.181	TH1	DRSC34601
-0.358	-0.508	-0.283	SLIRP2	DRSC16363
-0.081	-0.652	-0.262	SLIRP2	DRSC26237
-0.033	-0.168	-0.12	CG13124	DRSC02220
-0.252	-0.416	-0.0549	CG13124	DRSC27328
-0.452	-0.665	-0.181	CG4806	DRSC04491
-0.0629	-0.441	-0.0644	CG4806	DRSC42720
0.613	0.262	0.886	Phax	DRSC07066
0.601	0.423	0.442	Phax	DRSC42671
-0.36	-0.494	-0.18	CG6695	DRSC16098
-0.281	-0.491	-0.454	CG6695	DRSC24623
0.349	-0.0111	0.315	Capr	DRSC10346
-0.773	-1.03	-0.76	Capr	DRSC26777
1.23	0.988	1.17	Srp19	DRSC11288
-0.195	-0.469	-0.0526	Srp19	DRSC24706
0.8	0.489	0.631	pit	DRSC22798
0.419	0.227	0.557	pit	DRSC28254
-0.332	-0.507	-0.361	CG3594	DRSC21959
-0.16	-0.609	-0.263	CG3594	DRSC35710
0.0803	-0.355	0.103	CG10909	DRSC14282
0.879	-0.207	0.64	CG10909	DRSC33619
0.118	0.057	0.164	Rrp5	DRSC15862
0.0706	-0.313	0.445	Rrp5	DRSC29039
0.592	0.454	0.654	Gga	DRSC18260
-0.236	-0.251	-0.19	Gga	DRSC27761
0.0258	-0.718	-0.316	CG4896	DRSC00671
-0.194	-0.382	-0.277	CG4896	DRSC24570
-0.308	-0.301	-0.275	CG18596	DRSC15355
0.0706	-0.498	0.0748	CG18596	DRSC42703
0.273	-0.00161	0.369	MAN1	DRSC04342
-0.666	-0.943	-0.574	MAN1	DRSC42681
0.0757	-0.161	0.303	CG7903	DRSC16338
0.749	0.657	0.744	CG7903	DRSC29953
0.868	0.513	0.672	Polr2G	DRSC16068
1.13	0.404	0.646	Polr2G	DRSC31810
0.0898	-0.474	0.298	CG15014	DRSC27374
0.712	0.176	0.675	CG15014	DRSC34087
-0.155	-0.16	-0.13	Rbp4	DRSC16818
-0.173	-0.214	-0.109	Rbp4	DRSC27818
-1.08	-1.54	-0.816	anox + SLIRP1	DRSC20542
-0.374	-0.683	-0.226	anox + SLIRP1	DRSC42713
0.962	0.606	1.2	peng	DRSC29638
0.288	-0.542	-0.135	peng	DRSC41042
-0.107	-0.633	-0.01	Pof	DRSC04405
0.382	-0.336	0.274	Pof	DRSC35955
0.585	0.422	0.461	Su(var)205	DRSC03446
0.848	0.62	0.737	Su(var)205	DRSC37257
0.335	0.227	0.277	CR33317	DRSC02653
1.04	0.295	0.858	CG34354	DRSC15645
-0.0781	-0.782	0.01	CG34354	DRSC23054
0.771	0.303	0.891	Ythdc1	DRSC08141
-0.791	-1.17	-1.02	Ythdc1	DRSC42651
0.151	-0.0171	0.299	Rhau	DRSC03200
0.608	0.52	0.59	Rhau	DRSC27042
0.27	-0.0838	0.274	drosha	DRSC07607
1.5	0.762	1.35	drosha	DRSC35708
-0.825	-0.933	-0.61	orb2 + CG43783	DRSC10540
-0.0201	-0.236	-0.107	orb2 + CG43783	DRSC10542
0.296	0.0693	0.485	orb2 + CG43783	DRSC25697
0.27	-0.341	-0.255	orb2 + CG43783	DRSC42724
-0.602	-0.787	-0.34	B52	DRSC25482
0.157	-0.04	-0.0194	B52	DRSC40397
1.09	0.928	1.11	Srp72	DRSC28338
0.0327	-0.0158	0.0771	Srp72	DRSC40391
1.3	0.926	1.29	rump	DRSC16480
0.855	0.351	0.959	rump	DRSC42718
0.119	-0.298	0.111	Rb97D	DRSC33092
0.0307	-0.151	0.0969	Rb97D	DRSC33093
0.175	-0.136	0.0758	x16	DRSC00960
-0.75	-0.708	-0.696	x16	DRSC23865
0.676	0.0363	0.608	nito	DRSC05943
-0.637	-0.67	-0.658	nito	DRSC35891
